The full ranking holds about 3,200 compounds; the median of “TSA(with NAD+) / Primary screening (TSA) / delta Tm (K)” is about -0.04, and the highest 2% start at about 0.37. The list shows a part of the results.

Protein sequences, listed by entry. Tags and fused reporters are not part of them. Residues count along the entry.
UniProt Q96EB6, 2-747 limits assumed: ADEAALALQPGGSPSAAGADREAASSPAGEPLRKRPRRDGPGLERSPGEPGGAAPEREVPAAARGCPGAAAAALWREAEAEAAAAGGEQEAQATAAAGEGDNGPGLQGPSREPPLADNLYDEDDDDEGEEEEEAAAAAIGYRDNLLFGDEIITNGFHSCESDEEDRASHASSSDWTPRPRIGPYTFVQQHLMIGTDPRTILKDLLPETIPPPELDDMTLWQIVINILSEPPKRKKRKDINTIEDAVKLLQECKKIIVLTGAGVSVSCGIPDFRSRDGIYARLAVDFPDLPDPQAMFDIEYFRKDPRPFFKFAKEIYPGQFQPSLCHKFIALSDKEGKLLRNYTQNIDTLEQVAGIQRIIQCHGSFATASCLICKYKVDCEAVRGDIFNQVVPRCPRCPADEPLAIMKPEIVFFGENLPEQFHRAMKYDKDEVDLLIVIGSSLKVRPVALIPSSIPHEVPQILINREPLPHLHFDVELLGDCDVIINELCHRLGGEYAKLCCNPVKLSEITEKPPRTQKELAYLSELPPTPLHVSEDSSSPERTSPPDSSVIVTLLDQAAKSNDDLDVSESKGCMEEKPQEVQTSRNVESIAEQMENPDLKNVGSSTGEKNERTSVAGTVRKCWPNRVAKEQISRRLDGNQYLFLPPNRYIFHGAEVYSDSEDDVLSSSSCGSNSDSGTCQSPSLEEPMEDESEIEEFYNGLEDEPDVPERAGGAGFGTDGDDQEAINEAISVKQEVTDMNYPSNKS

The values that follow come from publication PMC6925144, “A prospective compound screening contest identified broader inhibitors for Sirtuin 1” (Scientific Reports, 2019).

The assay addresses NAD-dependent deacetylase Sirtuin 1 (human, UniProt Q96EB6). Kind of assay: primary screen, delta tm. More on the design: single well (n = 1, as 'the same TSA'). Conditions: 10 µM. On the procedure: A total of 3,192 compounds extracted from the proposed lists were first screened by thermal shift assay (TSA), which determined a melting temperature shift (ΔTm) of Sirtuin 1 upon the addition of a test compound at a concentration of 10 µM (n = 1) with primary hit criteria of ΔTm > 0.45 K or ΔTm < −1.5 K. Primary hits (48 compounds) were retested in the same assay at three concentrations (5, 10, 20 µM, n = 4) for hit confirmation and for dose-dependency check. Secondary hits (41 compounds) were checked their selectivity for Sirtuin 1 based on counterscreening on unrelated protein targets (bovine carbonic anhydrase (CA) and recombinant SH2 domain of hABL1 kinase (ABL1)) at three different concentrations (5, 10, 20 µM, n = 4), which yielded 38 hit compounds, hereafter referred to as TSA hits. The TSA screening above was conducted in the absence of NAD+. As noted, the structure of Sirtuin 1 is different in the presence of NAD+ and substrate. The chemical profile of TSA hits found from the different conditions could be different. […] As a result, 39 TSA hits were found.
Take `CC1(c2cccc(NC(=O)c3ccc4c(c3)CCC4)c2)NC(=O)NC1=O` (centres unmarked): the “TSA(with NAD+) / Primary screening (TSA) / delta Tm (K)” value is reported as -0.13 K.

For `O=C(Nc1cc2c(=O)[nH]cnc2cc1F)c1cccc(Cl)c1F`, the “TSA(with NAD+) / Primary screening (TSA) / delta Tm (K)” value is reported as -0.14 K. Turning to `Cc1cc(CSc2nc3ccccc3[nH]2)no1`, the “TSA(with NAD+) / Primary screening (TSA) / delta Tm (K)” value was 0.06 K. In the case of `NC(=O)c1ccc(COC(=O)c2ccccc2NC(=O)c2ccco2)cc1`, the “TSA(with NAD+) / Primary screening (TSA) / delta Tm (K)” value is listed as 0.09 K. As for `COc1cc(-c2nc(-c3ccccc3)c(-c3ccccc3)[nH]2)ccc1OS(=O)(=O)c1ccc(C)cc1`, the “TSA(with NAD+) / Primary screening (TSA) / delta Tm (K)” value is on record as 0.05 K. `C=CCCCCN`: the “TSA(with NAD+) / Primary screening (TSA) / delta Tm (K)” value was -0.13 K. As to `Cn1c(=O)c2ccccc2n2c(COC(=O)Cn3nc(-c4ccc(F)cc4)oc3=O)nnc12`, the “TSA(with NAD+) / Primary screening (TSA) / delta Tm (K)” value was -0.03 K. With `O=C(CSc1nnc(NCc2ccco2)s1)Nc1ccc(N2CCCC2=O)cc1`, the “TSA(with NAD+) / Primary screening (TSA) / delta Tm (K)” value is recorded as -0.03 K. As to `COc1cccc(C2=N/C(=C/c3cccnc3)C(=O)O2)c1`, the “TSA(with NAD+) / Primary screening (TSA) / delta Tm (K)” value is recorded as -0.18 K. In the case of `COc1ccnc(N(C)C[C@H](O)CO)n1`, the “TSA(with NAD+) / Primary screening (TSA) / delta Tm (K)” value is on record as -0.18 K. Turning to `O=C(CSc1nnc(NCc2ccco2)s1)N1CCN(Cc2cccc3ccccc23)CC1`, the “TSA(with NAD+) / Primary screening (TSA) / delta Tm (K)” value is -0.09 K.

`CCc1ccc2c(COC(=O)c3cccc(S(=O)(=O)N(C)c4ccccc4)c3)cc(=O)oc2c1`: the “TSA(with NAD+) / Primary screening (TSA) / delta Tm (K)” value is -0.01 K.

Take `O[C@@H]1CCN(c2ncnc3ccsc23)C1`: the “TSA(with NAD+) / Primary screening (TSA) / delta Tm (K)” value is 0.03 K. For `CN(c1ccccc1)S(=O)(=O)c1cccc(C(=O)Nc2ccc(Br)cc2Cl)c1`, the “TSA(with NAD+) / Primary screening (TSA) / delta Tm (K)” value is 0.07 K. The result for `Cc1onc(-c2ccccc2)c1-c1nnc(CN2C(=O)c3ccc([N+](=O)[O-])cc3C2=O)o1` reads -0.01 K. In the case of `CCC(N)C(N)=O` (centres unmarked), the “TSA(with NAD+) / Primary screening (TSA) / delta Tm (K)” value was 0.03 K. As for `Cn1c(=O)c2c(ncn2CC(=O)OCc2cc(=O)n3c(n2)sc2ccccc23)n(C)c1=O`, the figure is -0.11 K; as for `C=CCNc1ccc2nnc(C(F)(F)F)n2n1`, -0.18 K; as for `NC(=O)c1ccnc(N2CCN(CCO)CC2)c1`, 0.25 K. As for `CN(c1ccccc1)S(=O)(=O)c1cccc(NCC(=O)Nc2ccc(Br)cc2)c1`, the figure is -0.01 K; as for `Cc1ccc(N(C)S(=O)(=O)c2cccc(C(=O)Nc3ccccc3C(F)(F)F)c2)cc1`, -0.09 K; as for `O=C(NCc1cccc(NC(=O)C2CC2)c1)c1ccc(C(=O)c2ccccc2)cc1`, 0.06 K. As to `COc1ccc(NC(=O)C(=O)c2c(C)nn(-c3ccccc3)c2C)cc1OCc1cn2ccccc2n1`, the “TSA(with NAD+) / Primary screening (TSA) / delta Tm (K)” value is -0.02 K. Regarding `CN(C)CCOc1ccc(C(N)=S)cc1`, the “TSA(with NAD+) / Primary screening (TSA) / delta Tm (K)” value is on record as -0.22 K. As to `COc1ccccc1N1C(=O)CC(Nc2ccc(C(=O)O)cc2)C1=O` (centres unmarked), the “TSA(with NAD+) / Primary screening (TSA) / delta Tm (K)” value is recorded as -0.11 K. The result for `CC(C)C(NS(=O)(=O)/C=C/c1ccccc1)C(=O)O` (centres unmarked) reads -0.01 K; that for `O=c1[nH]c(S)nc2c1cnn2-c1ccccc1`, -0.04 K. Regarding `COc1cccc(C(=O)C2=C(O)C(=O)N(CCCN3CCOCC3)C2c2ccccc2F)c1` (centres unmarked), the “TSA(with NAD+) / Primary screening (TSA) / delta Tm (K)” value was -0.02 K. As for `CC(CNCCS(=O)(=O)C(C)(C)C)c1ccccc1` (centres unmarked), the figure is -0.03 K; as for `Cc1noc(C)c1COc1ccc(C(=O)N2CCCC2c2ccc[nH]2)cc1` (centres unmarked), -0.16 K. The result for `COc1ccc(NC(=S)NN)cc1OC` reads 0.11 K; that for `COc1cc(SC)ccc1C(=O)N(Cc1ccccc1)c1ccccc1`, -0.16 K.

With `CC(CN)N(C)C` (centres unmarked), the “TSA(with NAD+) / Primary screening (TSA) / delta Tm (K)” value is recorded as -0.32 K.

As to `CCN(Cc1cccc(F)c1)C(=O)c1cnc2ccccn2c1=O`, the “TSA(with NAD+) / Primary screening (TSA) / delta Tm (K)” value was -0.11 K. As for `Cc1cccc(C=C2C(=O)NC(=S)NC2=O)c1`, the figure is -0.02 K; as for `CCC(CC)N(c1ccc(C)c(C)c1)S(=O)(=O)c1cnc2c(c1)c(=O)[nH]c(=O)n2C`, -0.13 K; as for `CC(OC(=O)CC1Oc2ccccc2NC1=O)C(=O)Nc1ccc(C(N)=O)cc1` (centres unmarked), 0.02 K. With `CN(c1ccc(S(N)(=O)=O)cc1)S(=O)(=O)c1cccc(C#N)c1`, the “TSA(with NAD+) / Primary screening (TSA) / delta Tm (K)” value is -0.18 K. On to `Cc1nc(NCc2cncnc2)ccc1I`, for which the “TSA(with NAD+) / Primary screening (TSA) / delta Tm (K)” value was -0.12 K. As for `CCC(CO)Nc1ncnc2ccsc12` (centres unmarked), the “TSA(with NAD+) / Primary screening (TSA) / delta Tm (K)” value was -0.01 K. In the case of `Cc1ccc(C)c(CN(C)CC(N)=O)c1`, the “TSA(with NAD+) / Primary screening (TSA) / delta Tm (K)” value is given as -0.05 K. As for `NCCNC1CC1`, the “TSA(with NAD+) / Primary screening (TSA) / delta Tm (K)” value is on record as -0.04 K. As for `O=S(=O)(NC1=NCCC1)c1cccc(NS(=O)(=O)c2ccc(C34CC5CC(CC(C5)C3)C4)cc2)c1`, the “TSA(with NAD+) / Primary screening (TSA) / delta Tm (K)” value is 0.09 K. In the case of `O=C(Nc1cccc(S(=O)(=O)NC2=NCCC2)c1)c1cnc2ccccc2n1`, the “TSA(with NAD+) / Primary screening (TSA) / delta Tm (K)” value is recorded as -0.11 K. The result for `COc1cc(CN(C)C(=O)c2cccc(C#N)c2)ccc1OCc1ccccc1` reads -0.13 K; that for `COCCNC(=O)CSc1ccccc1C(=O)Nc1ccc(C(N)=O)cc1`, -0.13 K; that for `CC(C)c1ccc(C(NC(=O)c2cccc(C(N)=O)c2)c2cccs2)cc1` (centres unmarked), -0.05 K.
